# PubChem BioAssay AID445 (National Center for Advancing Translational Sciences (NCATS), 2006)
# The other results are listed elsewhere or left out. The main result of the screen is listed elsewhere. These columns were measured beside it and carry no call. The list favours compounds with an active or inconclusive main result. The note in brackets gives the kind of curve behind each potency; many fits are weak.
# Experiment: IkB Signaling
# Details: ABC-DLBCL IkBa-CBG/CBR dual luciferase ratio (green luciferase fused to IkBa over red control in OCI-Ly3 lymphoma cells), 4 h
# Procedure, shortened: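 In this assay, an IκBα–CBG68 fusion accumulates when IKK-driven degradation is blocked; native CBR normalizes for cell number. OCI-Ly3 cells were treated 4 h with compound and doxycycline, then green and red light read after Chroma-Glo addition.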
# [1] = measured here: control luc red channel unless noted
# [2] = measured here: IkB-luc green channel
# [3] = measured here: control luc red channel
structure (smiles),measurement,setting,value
Cc1ccccc1-c1noc(-c2ccccc2OCC(=O)Nc2ccccc2[N+](=O)[O-])n1,AC50,[1],"12.6 µM [falling, partial curve]"
NC(=O)SCC(=O)Nc1ccc(Cl)c(Cl)c1,AC50,[2],"39.8 µM [rising, single point]"
same,AC50,[3],"7.94 µM [falling, partial curve]"
CCc1ccc(NC(=O)CN(Cc2ccccc2)S(=O)(=O)c2ccc3nc(C)sc3c2)cc1,AC50,[1],"10 µM [falling, partial curve]"
Cn1c(=O)oc2cc(S(=O)(=O)Nc3ccc(O)cc3)ccc21,AC50,[1],"25.1 µM [falling, partial curve]"
O=C1c2oc3ccc(Cl)cc3c(=O)c2C(c2cccc(Br)c2)N1CCO (centres undefined),AC50,[1],"7.94 µM [falling, partial curve]"
O=C(Nc1ccccc1C(F)(F)F)N1CCN(c2ccc3nnc(-c4ccc(F)cc4)n3n2)CC1,AC50,[1],"25.1 µM [falling, single point]"
O=C(CCn1cnc2onc(-c3ccc(F)cc3)c2c1=O)N1CCN(c2cccc(Cl)c2)CC1,AC50,[1],"12.6 µM [falling, partial curve]"
N#Cc1c(NC(=O)CSc2n[nH]c(Cc3ccccc3)n2)oc(-c2ccccc2)c1-c1ccccc1,AC50,[1],"3.98 µM [falling, full curve]"
CCc1ccc(NC(=O)C(=O)NCC(c2cccnc2)N2CCOCC2)cc1 (centres undefined),AC50,[1],"20 µM [falling, partial curve]"
CCc1ccc(NC(=O)c2cc3c(=O)n(Cc4cccnc4)ccc3nc2C)cc1,AC50,[1],"25.1 µM [falling, partial curve, poor fit]"
Cc1cccc(C(=O)Nc2cccc(OCc3cc(=O)n4c(C)csc4n3)c2)c1,AC50,[1],"15.8 µM [falling, partial curve]"
O=C(c1cccc(F)c1)N1CCN(C(=O)c2cc(-c3ccc(Cl)cc3Cl)on2)CC1,AC50,[1],"0.316 µM [falling, full curve]"
COc1ccc(NC(=O)Cc2csc(COc3cccc(C)c3)n2)c(OC)c1,AC50,[1],"31.6 µM [falling, single point]"
COc1ccc(Nc2nc(N)nc(CSc3nc4cc(OC)ccc4s3)n2)cc1,AC50,[1],"31.6 µM [falling, single point]"
O=C1C(Cl)=C(Sc2nnc3c4ccccc4c4ccccc4c3n2)C(=O)c2ccccc21,AC50,[1],"3.16 µM [falling, partial curve]"
COc1ccc(-c2noc(CCC(=O)NCc3ccc(OC)cc3OC)n2)cc1,AC50,[1],"25.1 µM [falling, single point]"
O=C(O)c1ccccc1Nc1cccc(C(F)(F)F)c1,AC50,[1],"10 µM [falling, partial curve]"
CCCN(CCC)CC(O)Cn1cc(/C=C/C(=O)c2ccc(OCC)cc2)c2ccccc21 (centres undefined),AC50,[1],"25.1 µM [falling, partial curve]"
CC[N+](C)(CC)CCC[n+]1c(-c2ccccc2)c2cc(N)ccc2c2ccc(N)cc21,AC50,[1],"12.6 µM [falling, partial curve]"
COc1ccccc1C1C=C(c2ccc(Cl)cc2)Nc2nc(-c3ccc(Cl)cc3)nn21 (centres undefined),AC50,[1],"12.6 µM [falling, partial curve]"
COc1ccc(Cl)cc1N(C)C(=O)C(=O)Nc1ccc2nc3n(c(=O)c2c1)CCCCC3,AC50,[1],"12.6 µM [falling, single point]"
O=C1CN(C(=O)OCc2ccccc2)c2ccccc2N1,AC50,[1],"3.98 µM [falling, partial curve]"
COc1ccc(NC(=O)CSc2nc(-c3ccccc3)nc3c2Cc2c(CO)cnc(C)c2O3)cc1Cl,AC50,[1],"0.316 µM [rising, full curve]"
COc1ccc(CCCO[C@@H](Cn2ccnc2)c2ccc(OC)cc2)cc1,AC50,[1],"39.8 µM [falling, partial curve]"
Cc1ccc(C)c(N2CCN(C(=O)C(C)n3c(C)c4cnn(-c5ccccc5)c(=O)c4c3C)CC2)c1 (centres undefined),AC50,[1],"20 µM [falling, partial curve]"
Cc1ccc(CNC(=O)c2c(-c3cccc(Br)c3)noc2C)o1,AC50,[1],"10 µM [falling, full curve, poor fit]"
COC(=O)c1ccc(OCC2c3cc(OC)c(OC)cc3CCN2C(=O)c2ccccc2F)cc1 (centres undefined),AC50,[1],"39.8 µM [falling, single point]"
CC(Nc1ccc(-c2nc(-c3ccccn3)no2)cc1[N+](=O)[O-])c1ccccc1 (centres undefined),AC50,[1],"12.6 µM [falling, partial curve]"
CCCCCn1c(=N)n(CC(O)COc2cccc(C)c2)c2ccccc21 (centres undefined),AC50,[1],"25.1 µM [falling, partial curve]"
CCCc1cc(C(=O)Cc2ccc(C(=O)OCC)o2)c(O)cc1O,AC50,[1],"25.1 µM [falling, partial curve]"
COc1ccc(S(=O)(=O)N2CCN(CC(=O)Nc3ccc(C)c(F)c3)CC2)cc1,AC50,[1],"31.6 µM [falling, partial curve]"
COc1ccc(S(=O)(=O)c2cnc(SCC(=O)Nc3cc(F)ccc3C)[nH]c2=O)cc1Cl,AC50,[1],"10 µM [falling, partial curve]"
CCC1CCCCN1C(=O)c1sc(-n2nc(C)c(Cc3ccccc3)c2C)nc1C (centres undefined),AC50,[1],"31.6 µM [falling, single point]"
Cc1ccc(Cl)cc1NC(=O)CN1C(=O)C(C)(C)c2cc(S(=O)(=O)N3CCCCC3)ccc21,AC50,[1],"3.16 µM [rising, single point]"
CC(=O)c1cccc(NC(=O)c2cc3c(s2)-c2c(C)cccc2OC3)c1,AC50,[1],"39.8 µM [falling, single point]"
CCOC(=O)c1c(S(=O)(=O)NCC(=O)NCc2ccccc2)c(C)n(C)c1C,AC50,[1],"0.794 µM [rising, partial curve]"
CCOC(=O)c1ccc(OC(=O)c2cn(-c3cccc(OC)c3)c(=O)c3ccccc23)cc1,AC50,[1],"5.01 µM [falling, partial curve]"
Cc1ccc(Cn2c(=S)[nH]c3ccc(N4CCOCC4)cc3c2=O)o1,AC50,[2],"3.98 µM [rising, single point]"
same,AC50,[3],"39.8 µM [falling, single point]"
Cc1cccc(Cc2c(C)nc3nc(SCC(=O)NCc4ccco4)nn3c2C)c1,AC50,[1],"10 µM [falling, partial curve]"
CCc1ccc2c(c1)NC(c1ccc(OC)cc1)=NC(c1ccncc1)=N2,AC50,[1],"31.6 µM [falling, single point]"
COc1cc(/C=C/c2nc(C#N)c(N3CCC(C)CC3)o2)cc(OC)c1OC,AC50,[1],"20 µM [falling, single point]"
COC(=O)CN1C(=O)CSc2ccc(S(=O)(=O)Nc3cccc(Cl)c3C)cc21,AC50,[1],"31.6 µM [falling, single point]"
Nc1c(-c2nc(-c3ccc(F)cc3)cs2)c2ccccn2c1C(=O)c1ccc2c(c1)OCO2,AC50,[1],"6.31 µM [falling, partial curve]"
Cc1cc(=O)n(CC(=O)N2CCN(c3ccc(F)cc3)CC2)c2c1c(C)nn2C,AC50,[1],"31.6 µM [falling, single point]"
FC(F)C(F)(F)C(F)(F)C(F)(F)c1cc(-c2ccccc2)n[nH]1,AC50,[1],"20 µM [falling, single point]"
COc1ccc(NCc2cc3ccc(OC)cc3n(CC(=O)Nc3cc(Cl)ccc3C)c2=O)cc1,AC50,[1],"0.794 µM [falling, full curve]"
COc1ccc2c(c1)CCc1c(C(=O)N3CCc4ccccc4C3)noc1-2,AC50,[1],"25.1 µM [falling, partial curve]"
CC(Oc1ccccc1F)C(=O)Nc1ccc(-c2nc3ccccc3s2)cc1 (centres undefined),AC50,[1],"0.794 µM [rising, full curve]"
CCc1cccc(NC(=O)CN(C)S(=O)(=O)c2cccc3cccnc23)c1,AC50,[1],"25.1 µM [falling, single point]"
CC1CC(C)CN(C(=O)CSCC(=O)Nc2nc(-c3cccs3)cs2)C1 (centres undefined),AC50,[1],"7.94 µM [falling, partial curve]"
O=C1c2ccccc2-c2onc3c(NCCO)cc(NC4CCCCC4)c1c23,AC50,[1],"20 µM [falling, partial curve]"
COc1ccc(C(CNC(=O)COc2cc(C)cc(C)c2)N2CCOCC2)cc1 (centres undefined),AC50,[1],"39.8 µM [falling, single point]"
Cn1nccc1C(=O)NCc1ccc2c(c1)CCN2C(=O)c1ccc(Cl)cc1,AC50,[1],"10 µM [falling, partial curve]"
COc1ccc(N2CCN(c3csc4ccccc4c3=O)CC2)cc1,AC50,[1],"31.6 µM [falling, single point]"
CCc1ccccc1NC(=O)C1CCCN(c2cnccn2)C1 (centres undefined),AC50,[1],"1.58 µM [falling, partial curve, poor fit]"
Cc1ccc(NC(=O)CSc2nc(=O)cc(N)n2CCc2ccccc2)cc1,AC50,[1],"31.6 µM [falling, partial curve]"
COc1ccccc1OCC(=O)Nc1c(C(=O)c2ccc(F)cc2)oc2ccccc12,AC50,[1],"0.398 µM [rising, partial curve]"
COc1ccc(NC(=O)C(NC(=O)/C=C\c2ccc3c(c2)OCO3)c2ccccc2)cc1 (centres undefined),AC50,[1],"31.6 µM [falling, single point]"
O=C(CSc1c2c(nc3cc(Cl)ccc13)CCCC2)NCc1ccccc1Cl,AC50,[1],"39.8 µM [falling, single point]"
COc1ccc(C2N3CC4(C)CN2CC(c2ccccc2)(C3)C4=O)cc1OC (centres undefined),AC50,[1],"20 µM [falling, partial curve]"
COc1ccc(C2CC(=O)c3cc(-c4nc(-c5cccc([N+](=O)[O-])c5)cs4)c(=O)n(-c4ccc(OC)cc4)c3C2)cc1 (centres undefined),AC50,[1],"0.01 µM [falling, full curve]"
CCc1ccc(S(=O)(=O)c2nnn3c2nc(NCCNC(C)=O)c2cc(Cl)ccc23)cc1,AC50,[1],"15.8 µM [falling, single point]"

# Rewritten as tab-separated lines: part of the list above
structure (smiles)	measurement	setting	value
Cc1cccc(C(=O)Nc2cccc(OCc3cc(=O)n4c(C)csc4n3)c2)c1	AC50	[1]	15.8 µM [falling, partial curve]
Cc1ccc(CNC(=O)c2c(-c3cccc(Br)c3)noc2C)o1	AC50	[1]	10 µM [falling, full curve, poor fit]
CC(Oc1ccccc1F)C(=O)Nc1ccc(-c2nc3ccccc3s2)cc1 (centres undefined)	AC50	[1]	0.794 µM [rising, full curve]

# Given bar-delimited: part of the list above
structure (smiles) | measurement | setting | value
COc1cc(/C=C/c2nc(C#N)c(N3CCC(C)CC3)o2)cc(OC)c1OC | AC50 | [1] | 20 µM [falling, single point]
COC(=O)CN1C(=O)CSc2ccc(S(=O)(=O)Nc3cccc(Cl)c3C)cc21 | AC50 | [1] | 31.6 µM [falling, single point]
